From the supplement of paper PMC10849652
The other results are listed elsewhere or left out.

Chains of the proteins cited; added tags and fusions are not shown. Lines headed by an entry give the natural chain unless they say otherwise; changes in a name come on top.
UniProt O60476: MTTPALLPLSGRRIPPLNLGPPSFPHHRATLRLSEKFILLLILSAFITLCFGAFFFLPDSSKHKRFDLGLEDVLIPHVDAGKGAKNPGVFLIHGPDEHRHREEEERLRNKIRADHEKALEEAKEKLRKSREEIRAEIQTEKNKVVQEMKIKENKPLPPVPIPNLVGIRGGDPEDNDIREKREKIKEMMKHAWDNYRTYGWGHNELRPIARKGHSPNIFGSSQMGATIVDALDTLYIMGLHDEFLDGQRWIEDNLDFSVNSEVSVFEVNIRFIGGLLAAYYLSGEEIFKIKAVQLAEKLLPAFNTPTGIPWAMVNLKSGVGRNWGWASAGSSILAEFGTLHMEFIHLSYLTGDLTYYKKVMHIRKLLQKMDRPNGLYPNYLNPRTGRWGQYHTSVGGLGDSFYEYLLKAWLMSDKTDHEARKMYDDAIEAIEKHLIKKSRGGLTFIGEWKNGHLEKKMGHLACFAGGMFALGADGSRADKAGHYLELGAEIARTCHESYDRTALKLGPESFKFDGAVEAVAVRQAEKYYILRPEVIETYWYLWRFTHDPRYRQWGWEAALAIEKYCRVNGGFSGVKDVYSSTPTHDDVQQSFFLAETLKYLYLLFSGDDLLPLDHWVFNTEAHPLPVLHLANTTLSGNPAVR
UniProt Q6ZN28: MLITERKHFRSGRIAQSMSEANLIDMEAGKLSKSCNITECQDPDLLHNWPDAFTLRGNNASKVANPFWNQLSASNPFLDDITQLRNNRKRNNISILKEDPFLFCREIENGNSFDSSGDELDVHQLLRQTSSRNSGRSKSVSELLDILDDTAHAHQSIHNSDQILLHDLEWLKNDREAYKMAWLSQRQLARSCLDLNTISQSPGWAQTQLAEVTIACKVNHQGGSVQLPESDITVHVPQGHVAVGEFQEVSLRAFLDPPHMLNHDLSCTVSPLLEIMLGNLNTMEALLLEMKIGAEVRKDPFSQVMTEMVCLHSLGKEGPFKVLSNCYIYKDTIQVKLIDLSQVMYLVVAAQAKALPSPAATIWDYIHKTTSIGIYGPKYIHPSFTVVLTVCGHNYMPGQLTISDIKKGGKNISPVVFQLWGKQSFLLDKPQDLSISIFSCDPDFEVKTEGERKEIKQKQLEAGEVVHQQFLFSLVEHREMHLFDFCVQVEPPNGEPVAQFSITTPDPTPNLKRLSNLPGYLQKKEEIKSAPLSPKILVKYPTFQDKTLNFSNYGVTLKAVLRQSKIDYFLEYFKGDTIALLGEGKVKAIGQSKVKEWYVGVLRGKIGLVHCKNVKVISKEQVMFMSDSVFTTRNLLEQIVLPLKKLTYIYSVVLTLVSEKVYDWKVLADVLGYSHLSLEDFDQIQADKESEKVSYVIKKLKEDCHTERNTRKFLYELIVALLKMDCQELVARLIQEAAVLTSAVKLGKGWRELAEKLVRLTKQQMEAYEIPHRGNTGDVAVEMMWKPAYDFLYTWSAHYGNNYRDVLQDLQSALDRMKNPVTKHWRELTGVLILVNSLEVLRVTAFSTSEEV
UniProt Q8IWT6: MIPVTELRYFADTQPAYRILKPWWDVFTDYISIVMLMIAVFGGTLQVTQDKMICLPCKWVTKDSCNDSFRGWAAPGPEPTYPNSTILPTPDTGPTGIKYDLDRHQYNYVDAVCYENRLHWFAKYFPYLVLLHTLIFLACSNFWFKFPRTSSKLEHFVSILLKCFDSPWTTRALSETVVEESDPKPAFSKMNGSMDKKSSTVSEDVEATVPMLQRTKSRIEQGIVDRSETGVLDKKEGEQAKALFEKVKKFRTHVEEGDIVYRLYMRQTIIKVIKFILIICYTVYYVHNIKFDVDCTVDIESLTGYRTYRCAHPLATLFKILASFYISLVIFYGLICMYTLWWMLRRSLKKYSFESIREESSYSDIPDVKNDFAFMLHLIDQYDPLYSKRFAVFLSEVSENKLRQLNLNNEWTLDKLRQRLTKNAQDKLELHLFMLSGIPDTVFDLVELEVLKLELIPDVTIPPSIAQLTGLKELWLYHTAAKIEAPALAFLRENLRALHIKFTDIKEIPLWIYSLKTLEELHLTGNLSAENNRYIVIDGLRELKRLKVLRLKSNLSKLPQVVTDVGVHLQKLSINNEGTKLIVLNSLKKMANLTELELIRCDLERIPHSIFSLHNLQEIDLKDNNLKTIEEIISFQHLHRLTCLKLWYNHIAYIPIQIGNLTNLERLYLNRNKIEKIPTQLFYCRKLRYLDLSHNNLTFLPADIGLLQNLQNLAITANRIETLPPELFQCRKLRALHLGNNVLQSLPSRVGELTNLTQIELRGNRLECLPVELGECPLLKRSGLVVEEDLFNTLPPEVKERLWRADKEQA
UniProt Q9BX40: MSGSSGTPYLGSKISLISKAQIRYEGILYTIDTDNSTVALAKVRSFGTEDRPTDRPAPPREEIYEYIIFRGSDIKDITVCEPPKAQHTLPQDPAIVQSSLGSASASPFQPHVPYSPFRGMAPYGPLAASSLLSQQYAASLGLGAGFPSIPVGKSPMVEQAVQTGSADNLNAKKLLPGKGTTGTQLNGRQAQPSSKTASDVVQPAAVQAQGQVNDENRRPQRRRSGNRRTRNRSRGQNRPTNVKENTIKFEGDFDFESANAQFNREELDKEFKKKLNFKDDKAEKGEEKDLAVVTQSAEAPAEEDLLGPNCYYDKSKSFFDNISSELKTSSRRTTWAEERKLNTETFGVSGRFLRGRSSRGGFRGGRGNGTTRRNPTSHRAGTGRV
UniProt O15479: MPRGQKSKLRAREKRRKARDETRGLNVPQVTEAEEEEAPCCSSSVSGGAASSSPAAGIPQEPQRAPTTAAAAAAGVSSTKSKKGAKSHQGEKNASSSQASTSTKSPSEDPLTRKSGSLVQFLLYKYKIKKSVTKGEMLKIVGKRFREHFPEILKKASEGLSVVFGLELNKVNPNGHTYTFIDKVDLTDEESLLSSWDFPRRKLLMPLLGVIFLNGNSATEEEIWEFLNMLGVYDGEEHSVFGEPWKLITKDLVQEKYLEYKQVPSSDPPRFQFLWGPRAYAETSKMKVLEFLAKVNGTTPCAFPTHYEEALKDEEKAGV
UniProt Q9UNF1: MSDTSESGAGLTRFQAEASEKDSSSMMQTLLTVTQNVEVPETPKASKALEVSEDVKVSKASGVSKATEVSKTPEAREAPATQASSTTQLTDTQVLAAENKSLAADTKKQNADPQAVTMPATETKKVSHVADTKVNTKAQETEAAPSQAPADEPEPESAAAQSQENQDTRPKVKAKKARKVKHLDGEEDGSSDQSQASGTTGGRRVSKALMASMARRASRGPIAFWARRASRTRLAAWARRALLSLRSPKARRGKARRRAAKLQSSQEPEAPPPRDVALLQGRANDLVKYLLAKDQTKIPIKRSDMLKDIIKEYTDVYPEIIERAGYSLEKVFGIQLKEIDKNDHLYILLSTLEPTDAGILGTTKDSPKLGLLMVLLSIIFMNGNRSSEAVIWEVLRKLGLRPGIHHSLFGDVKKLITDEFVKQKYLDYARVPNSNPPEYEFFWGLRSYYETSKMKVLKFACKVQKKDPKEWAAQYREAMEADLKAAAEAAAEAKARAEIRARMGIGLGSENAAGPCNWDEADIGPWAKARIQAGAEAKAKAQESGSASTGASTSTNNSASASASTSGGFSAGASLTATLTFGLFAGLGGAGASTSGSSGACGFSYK
UniProt P62310: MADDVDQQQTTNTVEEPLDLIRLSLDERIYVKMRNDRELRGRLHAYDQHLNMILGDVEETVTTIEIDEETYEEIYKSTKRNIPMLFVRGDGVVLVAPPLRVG
UniProt Q3KQU3: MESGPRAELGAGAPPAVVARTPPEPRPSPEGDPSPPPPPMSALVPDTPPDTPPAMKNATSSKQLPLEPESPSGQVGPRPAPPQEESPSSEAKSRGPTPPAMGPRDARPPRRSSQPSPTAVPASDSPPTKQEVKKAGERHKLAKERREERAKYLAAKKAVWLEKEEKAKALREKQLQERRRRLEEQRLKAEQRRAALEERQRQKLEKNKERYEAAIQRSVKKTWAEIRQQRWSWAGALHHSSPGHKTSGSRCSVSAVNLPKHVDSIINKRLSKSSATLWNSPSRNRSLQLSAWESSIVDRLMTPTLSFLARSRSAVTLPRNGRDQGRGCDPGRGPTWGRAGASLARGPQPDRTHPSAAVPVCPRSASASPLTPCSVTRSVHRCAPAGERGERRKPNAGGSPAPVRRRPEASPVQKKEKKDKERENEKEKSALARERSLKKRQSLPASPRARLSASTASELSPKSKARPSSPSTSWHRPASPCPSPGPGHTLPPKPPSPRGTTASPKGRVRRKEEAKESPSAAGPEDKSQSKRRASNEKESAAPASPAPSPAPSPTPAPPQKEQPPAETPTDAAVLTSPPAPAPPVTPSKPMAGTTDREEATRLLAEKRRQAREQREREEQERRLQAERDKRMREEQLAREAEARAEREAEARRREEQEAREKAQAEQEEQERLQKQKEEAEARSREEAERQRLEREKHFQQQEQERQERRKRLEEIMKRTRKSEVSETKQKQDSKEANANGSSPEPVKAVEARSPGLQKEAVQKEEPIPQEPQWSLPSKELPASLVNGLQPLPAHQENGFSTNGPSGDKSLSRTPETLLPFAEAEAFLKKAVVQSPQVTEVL
UniProt Q9Y4Z0: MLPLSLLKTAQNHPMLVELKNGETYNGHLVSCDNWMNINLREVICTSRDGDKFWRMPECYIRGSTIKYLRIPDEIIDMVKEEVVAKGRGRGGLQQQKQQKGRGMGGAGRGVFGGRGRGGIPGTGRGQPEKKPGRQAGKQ
UniProt Q3MHD2: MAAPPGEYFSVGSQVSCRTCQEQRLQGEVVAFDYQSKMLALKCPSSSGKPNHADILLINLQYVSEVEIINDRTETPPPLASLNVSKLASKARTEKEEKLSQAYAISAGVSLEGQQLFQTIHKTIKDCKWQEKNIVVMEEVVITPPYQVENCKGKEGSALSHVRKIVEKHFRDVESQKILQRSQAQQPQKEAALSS
UniProt Q9Y333: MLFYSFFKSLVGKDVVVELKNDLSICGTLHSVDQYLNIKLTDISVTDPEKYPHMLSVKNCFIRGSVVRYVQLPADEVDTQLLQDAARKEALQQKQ
UniProt Q8IV50: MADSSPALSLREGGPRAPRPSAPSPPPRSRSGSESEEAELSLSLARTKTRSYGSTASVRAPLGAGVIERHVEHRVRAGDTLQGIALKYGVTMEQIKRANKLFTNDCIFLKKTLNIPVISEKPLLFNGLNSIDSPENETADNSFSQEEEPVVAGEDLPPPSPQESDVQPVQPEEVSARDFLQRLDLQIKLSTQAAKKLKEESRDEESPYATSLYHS
UniProt O00754: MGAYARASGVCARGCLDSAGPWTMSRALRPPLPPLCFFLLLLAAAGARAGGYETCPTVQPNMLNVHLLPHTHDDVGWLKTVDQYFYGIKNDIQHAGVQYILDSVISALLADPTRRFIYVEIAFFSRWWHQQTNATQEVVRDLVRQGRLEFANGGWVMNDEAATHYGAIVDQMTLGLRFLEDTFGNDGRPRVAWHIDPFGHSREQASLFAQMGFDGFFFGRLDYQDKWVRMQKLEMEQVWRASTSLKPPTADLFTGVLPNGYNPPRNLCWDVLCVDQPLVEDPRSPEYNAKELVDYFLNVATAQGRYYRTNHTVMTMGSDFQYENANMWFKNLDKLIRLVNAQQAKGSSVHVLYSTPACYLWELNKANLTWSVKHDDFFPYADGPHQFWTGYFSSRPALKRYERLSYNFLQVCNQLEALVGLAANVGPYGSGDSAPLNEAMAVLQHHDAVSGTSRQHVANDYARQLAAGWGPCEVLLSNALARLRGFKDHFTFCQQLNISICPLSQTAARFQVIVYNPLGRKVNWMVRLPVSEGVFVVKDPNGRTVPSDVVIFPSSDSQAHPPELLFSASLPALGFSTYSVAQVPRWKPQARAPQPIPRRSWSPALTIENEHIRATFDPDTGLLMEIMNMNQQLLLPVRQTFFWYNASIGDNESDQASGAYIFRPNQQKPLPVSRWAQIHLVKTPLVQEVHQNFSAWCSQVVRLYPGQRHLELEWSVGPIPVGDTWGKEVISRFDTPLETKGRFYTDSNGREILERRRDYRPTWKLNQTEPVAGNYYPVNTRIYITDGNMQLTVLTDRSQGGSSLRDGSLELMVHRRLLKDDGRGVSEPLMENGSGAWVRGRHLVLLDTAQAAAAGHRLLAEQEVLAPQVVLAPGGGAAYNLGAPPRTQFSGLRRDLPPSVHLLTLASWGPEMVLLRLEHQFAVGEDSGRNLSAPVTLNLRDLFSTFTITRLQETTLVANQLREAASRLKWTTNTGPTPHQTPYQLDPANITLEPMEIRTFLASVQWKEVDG

What was measured:
Test in all cases: log2 fold change, soluble protein after heating vs DMSO (PISA); higher = thermal stabilisation; K562 cells, 10 uM, 30 min; active = over 0.2 and 3.5 SD of the protein, either way, in both replicates (recomputed)
saracatinib = compound: CN1CCN(CCOc2cc(OC3CCOCC3)c3c(Nc4c(Cl)ccc5c4OCO5)ncnc3c2)CC1 [saracatinib]
Outline: (§1)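 Soluble protein was defined as the supernatant after 21,000xg for 90 min. It came from K562 cells at 2×10^6 cells/mL given 10 μM compound for 30 min, heated in aliquots for 3 min across 48°C-58°C, pooled, and extracted in PBS with 0.5% NP-40 at 4°C, and was quantified by TMTpro 16plex LC-MS/MS with equalised channel sums. Thermal stability against control samples, from duplicates, is reported as log2 fold change.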

sotrastaurin = compound: CN1CCN(c2nc(C3=C(c4c[nH]c5ccccc45)C(=O)NC3=O)c3ccccc3n2)CC1 [sotrastaurin]
Outline: as §1

alvocidib = compound: CN1CC[C@H](c2c(O)cc(O)c3c(=O)cc(-c4ccccc4Cl)oc23)[C@H](O)C1 [alvocidib]
Outline: as §1

Tubastatin A = compound: CN1CCc2c(c3ccccc3n2Cc2ccc(C(=O)NO)cc2)C1 [Tubastatin A]
Outline: as §1

[1] = compound: CNC(=O)C1=CC=CC=C1NC2=NC(=NC=C2Cl)NC3=C(C=C(C=C3)N4CCOCC4)OC
Outline: as §1

defactinib = compound: CNC(=O)c1ccc(Nc2ncc(C(F)(F)F)c(NCc3nccnc3N(C)S(C)(=O)=O)n2)cc1 [defactinib]
Outline: as §1

rucaparib = compound: CNCc1ccc(-c2[nH]c3cc(F)cc4c3c2CCNC4=O)cc1 [rucaparib]
Outline: as §1

[2] = compound: CNc1nc(-c2ccc3c(N)n[nH]c3c2)cc(N2C[C@@H](C(=O)NC3CCCCC3)CC[C@H]2C)n1
Outline: as §1

encorafenib = compound: COC(=O)N[C@@H](C)CNc1nccc(-c2cn(C(C)C)nc2-c2cc(Cl)cc(NS(C)(=O)=O)c2F)n1 [encorafenib]
Outline: as §1

[3] = compound: COC(=O)[C@H](CCSC)NC(=O)C1=C(C=C(C=C1)NC[C@H](CS)N)C2=CC=CC=C2
Outline: as §1

[4] = compound: COC1=CC=C(C=C1)CN2C=CC3=C2C=C(C=C3)C(=O)NO
Outline: as §1

filanesib = compound: CON(C)C(=O)N1N=C(c2cc(F)ccc2F)S[C@@]1(CCCN)c1ccccc1 [filanesib]
Outline: as §1

zotarolimus = compound: CO[C@H]1C[C@@H]2CC[C@@H](C)[C@@](O)(O2)C(=O)C(=O)N2CCCC[C@H]2C(=O)O[C@H]([C@H](C)C[C@@H]2CC[C@H](n3cnnn3)[C@H](OC)C2)CC(=O)[C@H](C)/C=C(\C)[C@@H](O)[C@@H](OC)C(=O)[C@H](C)C[C@H](C)/C=C/C=C/C=C/1C [zotarolimus]
Outline: as §1

idasanutlin = compound: COc1cc(C(=O)O)ccc1NC(=O)[C@@H]1N[C@@H](CC(C)(C)C)[C@](C#N)(c2ccc(Cl)cc2F)[C@H]1c1cccc(Cl)c1F [idasanutlin]
Outline: as §1

alisertib = compound: COc1cc(Nc2ncc3c(n2)-c2ccc(Cl)cc2C(c2c(F)cccc2OC)=NC3)ccc1C(=O)O [alisertib]
Outline: as §1

[5] = compound: COc1cc2nc(-c3cc(F)ccc3O)nc(N[C@@H]3CNC[C@H]3C(C)(C)O)c2cc1OC
Outline: as §1

gefitinib = compound: COc1cc2ncnc(Nc3ccc(F)c(Cl)c3)c2cc1OCCCN1CCOCC1 [gefitinib]
Outline: as §1

[6] = compound: COc1cccc2cc(-c3nc([C@H]4CC[C@H](C(=O)O)CC4)n4ncnc(N)c34)[nH]c12
Outline: as §1

lapatinib = compound: CS(=O)(=O)CCNCc1ccc(-c2ccc3ncnc(Nc4ccc(OCc5cccc(F)c5)c(Cl)c4)c3c2)o1 [lapatinib]
Outline: as §1

pictilisib = compound: CS(=O)(=O)N1CCN(Cc2cc3nc(-c4cccc5[nH]ncc45)nc(N4CCOCC4)c3s2)CC1 [pictilisib]
Outline: as §1

Measured: log2 fold change

MAN1A2 (UniProt O60476)
inactive: saracatinib 0.066 | sotrastaurin -0.006 | alvocidib 0.011 | Tubastatin A -0.015 | [1] -0.026 | defactinib 0.097 | rucaparib 0.025 | [2] -0.01 | encorafenib -0.024 | [3] 0.041 | [4] -0.019 | filanesib -0.062 | zotarolimus -0.078 | idasanutlin -0.06 | alisertib -0.191 | [5] -0.016 | gefitinib -0.003 | [6] 0.03 | lapatinib 0.041 | pictilisib 0.002

MACC1 (UniProt Q6ZN28)
inactive: saracatinib 0.007 | sotrastaurin 0.059 | alvocidib 0.138 | Tubastatin A -0.07 | [1] -0.054 | defactinib -0.056 | rucaparib -0.023 | [2] -0.067 | encorafenib 0.085 | [3] 0.068 | [4] 0.04 | filanesib -0.061 | zotarolimus 0 | idasanutlin 0.025 | alisertib -0.273 | [5] -0.378 | gefitinib 0.229 | [6] -0.014 | lapatinib 0.064 | pictilisib 0.072

LRRC8A (UniProt Q8IWT6)
inactive: saracatinib -0.109 | sotrastaurin -0.001 | alvocidib 0.112 | Tubastatin A 0.002 | [1] 0.023 | defactinib 0.079 | rucaparib 0.06 | [2] 0.003 | encorafenib -0.1 | [3] -0.026 | [4] -0.061 | filanesib 0.243 | zotarolimus -0.019 | idasanutlin 0.054 | alisertib -0.196 | [5] 0.021 | gefitinib -0.065 | [6] -0.034 | lapatinib 0.005 | pictilisib -0.052

LRRFIP2 (UniProt Q9Y608)
inactive: saracatinib -0.001 | sotrastaurin -0.003 | alvocidib 0.039 | Tubastatin A 0.009 | [1] 0.013 | defactinib -0.039 | rucaparib -0.002 | [2] -0.017 | encorafenib -0.01 | [3] 0.014 | [4] 0.008 | filanesib -0.009 | zotarolimus -0.039 | idasanutlin -0.013 | alisertib -0.1 | [5] -0.004 | gefitinib 0.089 | [6] 0.026 | lapatinib 0.003 | pictilisib 0.094

LSM14B (UniProt Q9BX40)
inactive: saracatinib -0.096 | sotrastaurin -0.116 | alvocidib 0.074 | Tubastatin A 0.169 | [1] 0.129 | defactinib 0.05 | rucaparib 0.187 | [2] 0.075 | encorafenib 0.132 | [3] -0.129 | [4] -0.004 | filanesib 0.067 | zotarolimus -0.045 | idasanutlin 0.124 | alisertib -0.135 | [5] 0.163 | gefitinib -0.056 | [6] -0.067 | lapatinib 0.009 | pictilisib 0.037

MACF1 (UniProt Q9UPN3)
inactive: saracatinib -0.096 | sotrastaurin -0.169 | alvocidib -0.006 | Tubastatin A 0.066 | [1] 0.056 | defactinib 0.005 | rucaparib 0.087 | [2] 0.077 | encorafenib 0.076 | [3] -0.024 | [4] 0.021 | filanesib 0.106 | zotarolimus 0.056 | idasanutlin 0.085 | alisertib -0.006 | [5] -0.018 | gefitinib 0.038 | [6] -0.107 | lapatinib 0.099 | pictilisib 0.043

MAGEB2 (UniProt O15479)
inactive: saracatinib -0.134 | sotrastaurin -0.032 | alvocidib 0.139 | Tubastatin A -0.061 | [1] 0.101 | defactinib 0.274 | rucaparib -0.076 | [2] 0.182 | encorafenib -0.02 | [3] -0.04 | [4] -0.119 | filanesib 0.368 | zotarolimus -0.094 | idasanutlin 0.151 | alisertib -0.105 | [5] -0.076 | gefitinib -0.071 | [6] 0.216 | lapatinib 0.167 | pictilisib -0.082

MAGED2 (UniProt Q9UNF1)
inactive: saracatinib -0.165 | sotrastaurin -0.215 | alvocidib 0.125 | Tubastatin A 0.053 | [1] -0.319 | defactinib -0.117 | rucaparib -0.261 | [2] -0.054 | encorafenib -0.028 | [3] -0.021 | [4] -0.061 | filanesib -0.054 | zotarolimus 0 | idasanutlin -0.219 | alisertib -0.189 | [5] 0.231 | gefitinib 0 | [6] 0.065 | lapatinib -0.007 | pictilisib 0.14

LSM3 (UniProt P62310)
inactive: saracatinib 0.036 | sotrastaurin 0.015 | alvocidib -0.004 | Tubastatin A 0.035 | [1] -0.089 | defactinib 0.007 | rucaparib 0.014 | [2] 0.017 | encorafenib -0.046 | [3] -0.01 | [4] 0.101 | filanesib 0.05 | zotarolimus -0.011 | idasanutlin 0.087 | alisertib -0.275 | [5] -0.004 | gefitinib 0.027 | [6] 0.021 | lapatinib 0.065 | pictilisib -0.107

MAP1B (UniProt P46821)
inactive: saracatinib -0.002 | sotrastaurin 0.013 | alvocidib 0.048 | Tubastatin A 0.015 | [1] 0.02 | defactinib 0.048 | rucaparib 0.038 | [2] -0.008 | encorafenib 0.017 | [3] 0.024 | [4] -0.02 | filanesib 0.042 | zotarolimus -0.006 | idasanutlin 0.053 | alisertib -0.036 | [5] -0.026 | gefitinib 0.009 | [6] -0.01 | lapatinib 0.004 | pictilisib 0

Taken from the results shown (four entries):
MACF1 (UniProt Q9UPN3)
inactive: saracatinib -0.096 | sotrastaurin -0.169 | alvocidib -0.006 | Tubastatin A 0.066 | [1] 0.056 | defactinib 0.005 | rucaparib 0.087 | [2] 0.077 | encorafenib 0.076 | [3] -0.024 | [4] 0.021 | filanesib 0.106 | zotarolimus 0.056 | idasanutlin 0.085 | alisertib -0.006 | [5] -0.018 | gefitinib 0.038 | [6] -0.107 | lapatinib 0.099 | pictilisib 0.043

MAGEB2 (UniProt O15479)
inactive: saracatinib -0.134 | sotrastaurin -0.032 | alvocidib 0.139 | Tubastatin A -0.061 | [1] 0.101 | defactinib 0.274 | rucaparib -0.076 | [2] 0.182 | encorafenib -0.02 | [3] -0.04 | [4] -0.119 | filanesib 0.368 | zotarolimus -0.094 | idasanutlin 0.151 | alisertib -0.105 | [5] -0.076 | gefitinib -0.071 | [6] 0.216 | lapatinib 0.167 | pictilisib -0.082

MAGED2 (UniProt Q9UNF1)
inactive: saracatinib -0.165 | sotrastaurin -0.215 | alvocidib 0.125 | Tubastatin A 0.053 | [1] -0.319 | defactinib -0.117 | rucaparib -0.261 | [2] -0.054 | encorafenib -0.028 | [3] -0.021 | [4] -0.061 | filanesib -0.054 | zotarolimus 0 | idasanutlin -0.219 | alisertib -0.189 | [5] 0.231 | gefitinib 0 | [6] 0.065 | lapatinib -0.007 | pictilisib 0.14

LSM3 (UniProt P62310)
inactive: saracatinib 0.036 | sotrastaurin 0.015 | alvocidib -0.004 | Tubastatin A 0.035 | [1] -0.089 | defactinib 0.007 | rucaparib 0.014 | [2] 0.017 | encorafenib -0.046 | [3] -0.01 | [4] 0.101 | filanesib 0.05 | zotarolimus -0.011 | idasanutlin 0.087 | alisertib -0.275 | [5] -0.004 | gefitinib 0.027 | [6] 0.021 | lapatinib 0.065 | pictilisib -0.107

Further results

MAP7D1 (UniProt Q3KQU3)
inactive: saracatinib -0.153 | sotrastaurin -0.012 | alvocidib 0.279 | Tubastatin A 0.164 | [1] -0.022 | defactinib 0.281 | rucaparib 0.328 | [2] 0.081 | encorafenib 0.135 | [3] -0.112 | [4] -0.062 | filanesib 0.291 | zotarolimus -0.046 | idasanutlin 0.252 | alisertib 0.164 | [5] 0.002 | gefitinib -0.144 | [6] -0.171 | lapatinib 0.011 | pictilisib -0.147

LSM4 (UniProt Q9Y4Z0)
inactive: saracatinib 0.092 | sotrastaurin 0.003 | alvocidib -0.006 | Tubastatin A -0.014 | [1] 0.062 | defactinib 0.018 | rucaparib -0.036 | [2] -0.074 | encorafenib -0.025 | [3] 0.055 | [4] 0.051 | filanesib -0.013 | zotarolimus -0.021 | idasanutlin 0.026 | alisertib -0.121 | [5] -0.054 | gefitinib -0.002 | [6] 0.035 | lapatinib 0.022 | pictilisib -0.015

LSM12 isoform 2 (UniProt Q3MHD2)
inactive: saracatinib 0.163 | sotrastaurin -0.004 | alvocidib -0.055 | Tubastatin A 0.053 | [1] -0.016 | defactinib 0.035 | rucaparib 0.16 | [2] -0.025 | encorafenib -0.033 | [3] 0.066 | [4] -0.03 | filanesib -0.055 | zotarolimus 0.028 | idasanutlin 0.064 | alisertib -0.053 | [5] -0.035 | gefitinib -0.017 | [6] 0.004 | lapatinib 0.063 | pictilisib -0.14

LSM2 (UniProt Q9Y333)
inactive: saracatinib 0.082 | sotrastaurin 0.068 | alvocidib -0.04 | Tubastatin A -0.031 | [1] -0.022 | defactinib 0.013 | rucaparib -0.051 | [2] -0.041 | encorafenib -0.008 | [3] -0.01 | [4] 0.007 | filanesib -0.026 | zotarolimus -0.006 | idasanutlin -0.008 | alisertib -0.051 | [5] 0.024 | gefitinib 0.009 | [6] 0.071 | lapatinib -0.025 | pictilisib 0.026

LYSMD2 (UniProt Q8IV50)
inactive: saracatinib 0.054 | sotrastaurin -0.013 | alvocidib -0.024 | Tubastatin A -0.019 | [1] -0.051 | defactinib -0.053 | rucaparib -0.001 | [2] -0.019 | encorafenib 0 | [3] -0.037 | [4] -0.008 | filanesib -0.048 | zotarolimus -0.022 | idasanutlin -0.022 | alisertib -0.018 | [5] 0.051 | gefitinib 0.026 | [6] 0.009 | lapatinib -0.033 | pictilisib -0.034

MAN2B1 (UniProt O00754)
inactive: saracatinib 0.031 | sotrastaurin 0.042 | alvocidib 0.053 | Tubastatin A 0.009 | [1] -0.005 | defactinib -0.03 | rucaparib 0.122 | [2] -0.078 | encorafenib -0.005 | [3] 0.03 | [4] -0.044 | filanesib -0.002 | zotarolimus -0.013 | idasanutlin -0.023 | alisertib 0.04 | [5] -0.168 | gefitinib -0.022 | [6] 0.133 | lapatinib 0.004 | pictilisib 0.053
